For this assay, the target named is ABHD11 with a C-terminal HA tag (αβ-hydrolase domain-containing 11) (human). The assay can be described thus: affinity purification with mass spectrometry; immunoprecipitated ABHD11-HA from HeLa lysate (anti-HA affinity gel) subjected to LC-MS/MS.

Results are given in words; binding and its absence hold for the method and conditions named. In cells and extracts the contact can be indirect. Here binding means that the protein was enriched with, or labelled near, the bait; the list need not be complete.

B1: DLAT (dihydrolipoamide acetyltransferase) subunit of the pyruvate dehydrogenase complex (enzyme, UniProt P10515 87-647)
chain: SLPPHQKVPLPSLSPTMQAGTIARWEKKEGDKINEGDLIAEVETDKATVGFESLEECYMAKILVAEGTRDVPIGAIICITVGKPEDIEAFKNYTLDSSAAPTPQAAPAPTPAATASPPTPSAQAPGSSYPPHMQVLLPALSPTMTMGTVQRWEKKVGEKLSEGDLLAEIETDKATIGFEVQEEGYLAKILVPEGTRDVPLGTPLCIIVEKEADISAFADYRPTEVTDLKPQVPPPTPPPVAAVPPTPQPLAPTPSAPCPATPAGPKGRVFVSPLAKKLAVEKGIDLTQVKGTGPDGRITKKDIDSFVPSKVAPAPAAVVPPTGPGMAPVPTGVFTDIPISNIRRVIAQRLMQSKQTIPHYYLSIDVNMGEVLLVRKELNKILEGRSKISVNDFIIKASALACLKVPEANSSWMDTVIRQNHVVDVSVAVSTPAGLITPIVFNAHIKGVETIANDVVSLATKAREGKLQPHEFQGGTFTISNLGMFGIKNFSAIINPPQACILAIGASEDKLVPADNEKGFDVASMMSVTLSCDHRVVDGAVGAQWLAEFRKYLEKPITMLL
modifications: lipoylated (sites not given)
Regarding B1, the binding entry is reported as “binds”.

The values above are taken from article PMC7426941.
